# Assay results: PubChem BioAssay AID1487 (National Center for Advancing Translational Sciences (NCATS), 2009)
# Out of some 200,000 compounds screened, about 25 (0.01%) were called active. This list was built around the results that the source calls inconclusive (neither active nor inactive); the mix of calls is not that of the screen. The call rests on the fitted dose curve; in most records, active means well fitted inhibition curve with a large enough effect in the signal ratio, with a control signal flat (not every such curve was filed as active); inconclusive means small, poorly fitted or top-dose-only effect, or effect the other way, or a change in a side signal; inactive means flat fitted curve, though single readings scatter; the % refers to the signal ratio. A potency beside an inconclusive call is a rough fit, not a confirmed value.
# Test: qHTS Assay for Modulators of Lamin A Splicing
# Conditions: HeLa LMNA splicing GFP/RFP minigene ratio, 48 h; ratio change, negative = inhibition: at 46.1 µM (top of the series) unless noted
# Text: NCGC Assay Overview: Hutchinson-Gilford Progeria Syndrome (HGPS) is a pediatric premature aging disease caused by a spontaneous mutation in the lamin A/C (LMNA) gene. The mutation activates a cryptic splice site in the LMNA pre-mRNA which results in production of a pre-lamin A protein that cannot be processed properly. The mutant protein accumulates in the nucleus and negatively affects numerous cellular functions. Correction of the splicing defect in HGPS patient cells using a targeted oligonucleotide (exo11) leads to reversal of the cellular disease phenotypes. To identify small molecule modulators of aberrant LMNA splicing, a homogenous assay was constructed in HeLa cells that used a GFP containing minigene to report on correction of aberrant splicing in lamin A and a RFP (DsRed2) to report on cell viability, uniformity and nonspecific effects on the assay signal. This assay was adapted to laser-scanning microplate cytometry (Acumen, TTP Labtech) where miniaturization of the assay to a 1,536-well plate format was possible. References: Bowen, W. P.; Wylie, P. G. Application of Laser-Scanning Fluorescence Microplate Cytometry in High Content Screening. Assay Drug Dev Technol 2006;4:209-221. Scaffidi P, Misteli T. Reversal of the cellular phenotype in the premature aging disease Hutchinson-Gilford progeria syndrome. Nat.
# NCGC Assay Protocol Summary: Reagents/Controls: Stable clones expressing DsRed2 and lamin A-EGFP were generated by Cell and Molecular Technologies in S3 HeLa cells. HeLa cells were prepared for the assay when they were 70-90% confluent. The cells were counted and resuspended in Opti-MEM I (no phenol red; Gibco), 2% FBS, 1% penicillin/ streptomycin (Gibco) at concentration of 120 cells/uL concentration. The suspension was passed through a Falcon basket filter with pore size 40um (Beckton Dickson). Control titrations: column […] 1536-well plate contained a sixteen point titration (1:2 dilutions) in duplicate of ancitabine (Sigma: A8598) beginning at 40 uM final concentration. Column 2 contained a sixteen point titration (1:2 dilutions) of cycloheximide beginning at 1.4 mM final concentration. Column 3 contained ancitabine at 40 uM and column 4 contained was the vehicle control (0.5% DMSO final concentration). Assay Steps: 5 uL of HeLa cells were plated in Aurora LoBase black clear bottom (cyclic-olefin polymer) 1536-well plates at a final density of 600 cells/well. Controls and library compounds were added with a 1536-well pin array using the Kalypsys pin-tool. The plates were then incubated for 48 hrs in a cell-culture incubator (37 °C; 5% CO2, 98% humidity). Following incubation the plates were read on the Acumen Explorer using the 488 nm laser. Data was collected on objects between 10 and 100 um in size. Cell objects were defined by a 15 um width x 10 um depth filter. The ratio of the total object intensity in PMT1 (500-530 nm emission; GFP) over PMT3 (575-640 nm emission; RFP) was calculated for analysis. Keywords: NIH Roadmap, MLSCN, MLI, MLSMR, qHTS, NCGC, lamin A, Progeria, RNA splicing.
# On the % scale 0 is the no-effect control and ±100 the full control effect; potency means the concentration at half of the fitted maximal effect.
Compound,"ratio change, negative = inhibition",Potency
COc1cc(CCC(=O)Nc2cccc(C(F)(F)F)c2)cc(OC)c1OC,inactive,
Cc1ccc(-c2noc(CN3CCN(Cc4ccccc4)CC3)n2)cc1,,"inconclusive: 35.5 µM [falling, single point]"
CCNC(=S)NNC(=O)c1csc2c1CCCC2,inconclusive: -1.27%,
CCCCCCCCCCSc1n[nH]c(N)n1,inactive,
Cc1ccc(-c2c(C(=O)N(C)Cc3ccccc3)oc(=O)c3ccccc23)cc1,inconclusive: -34.3%,
O=C(COC(=O)c1cc[n+]([O-])cc1)Nc1cccc(Cl)c1Cl,,"inconclusive: 1.58 µM [activator, partial curve, poor fit]"
COc1ccc(-c2coc3cc(OC(C)=O)cc(OC(C)=O)c3c2=O)cc1,inconclusive: -48.4%,
Cc1cc(C(=O)OCC(=O)Nc2ccccc2)c(C)o1,,"inconclusive: 35.5 µM [cytotoxic, single point]"
Cc1nc(C)c(C(=O)Nc2ncc([N+](=O)[O-])s2)o1,inconclusive: 35.1% [at 46 µM],
COc1ccc(CN(C(C)=O)c2cccc(C)c2C)cc1,inconclusive: -35.6%,
Cc1ccccc1Nc1ccc(S(=O)(=O)N2CCOCC2)cc1[N+](=O)[O-],,"inconclusive: 35.5 µM [falling, single point]"
N#Cc1cc2c(nc1SCC(=O)Nc1sc3c(c1C#N)CCC3)CCCCCC2,inactive,
COC(=O)c1ccccc1NC(=O)c1sc(=S)n(C)c1N,inactive,
COc1ccc(CCN2C(=O)CC(NNC(=O)c3ccccc3Br)C2=O)cc1OC (stereo not given),inactive,
COc1ccc(/C=N/NC(=O)c2cc(-c3ccccc3OC(C)C)nc3ccccc23)cc1CN1CCOCC1,,"inconclusive: 15.8 µM [falling, single point]"
c1ccc(-c2cc(-c3nnc4n3N=C(c3ccc5ccccc5c3)CS4)[nH]n2)cc1,inconclusive: -20.6%,
COc1ccc(CCNC2=NCCS2)cc1,inconclusive: 8.14%,
COc1ccc(-c2nnc(SCC(=O)NCc3cccs3)n2C(C)C)cc1,inconclusive: 0.238%,
Cc1ccccc1OCCSc1nnc(-c2ccc([N+](=O)[O-])cc2)o1,inconclusive: 13.5% [at 46 µM],
N#C/C(=C/Nc1ccccc1)c1ccsc1,inactive,
Clc1cc(Br)ccc1OCCCNCc1ccccc1,inconclusive: 3.2%,
CCCCCCc1nc2ccccc2c(=O)n1NC(=O)c1c(O)c2c(n(CC(C)C)c1=O)CCCC2,inconclusive: -9.9%,
O=C(Nc1ccccc1)c1ccccc1N=Cc1ccccc1O,inconclusive: -6.5%,
Cc1cc(C)c2nc(N3CCN(C)CC3)c(C#N)cc2c1,inconclusive: 2.39%,
COc1cc(-c2noc(C3CC(=O)N(c4ccc5c(c4)OCCO5)C3)n2)cc(OC)c1OC (stereo not given),inconclusive: -23.2% [at 46 µM],
CC(C)N(C(=O)CSc1nc2ccccc2c(=O)[nH]1)C(C)C,inconclusive: -31.9% [at 46 µM],
COc1ccc(C(=O)COC(=O)c2ccc(NC(=O)c3ccccc3)cc2)cc1,,"inconclusive: 35.5 µM [cytotoxic, single point]"

Compound,"ratio change, negative = inhibition",Potency
COc1cccc(C(=O)NC(=S)Nc2ccc(Cl)c(C(=O)O)c2)c1,inactive,
COc1ccc(C(=O)Nc2ccc(-n3nncc3-c3ccc(OC)c(OC)c3)cc2)cc1,,"inconclusive: 12.6 µM [inhibitor, partial curve]"
CC(C)Sc1nnc(NC(=O)C2CC2)s1,inconclusive: -5.11%,
Cc1cc(C)cc(NC(=S)NC2CC3CCCC(C2)N3C2CC2)c1 (stereo not given),inconclusive: -15.8% [at 46 µM],
COc1ccc(Nc2cc(C)nc(-n3nc(C)cc3C)n2)cc1Cl,inconclusive: -16% [at 46 µM],
COc1cccc(/C=N/NC(=O)c2ccccc2N(Cc2ccccc2)S(=O)(=O)c2ccccc2)c1OC,inactive,
COc1ccc(Oc2nccc(-c3ccc(F)cc3)c2C#N)cc1,inactive,
CCc1nnc(/N=C/c2c(O)n(-c3ccc(Cl)cn3)c(=O)c3ccccc23)s1,inconclusive: -4.36%,
COCCCN1C(=O)c2ccc(C(=O)Nc3ccc(OC)cc3)cc2C1=O,inactive,
COc1cc(C2C3=C(Nc4ncnn42)c2ccccc2CC3)cc(OC)c1OC (stereo not given),inconclusive: -16.8%,
COc1ccc(NC(=O)c2sccc2-n2cccc2)cc1,inconclusive: 7.92% [at 46 µM],
O=C1NN(c2ccccc2)C(=O)C2C1C1C=CC2C12CC2 (stereo not given),inconclusive: 7.35%,
CC(C)=CCN1CCN(Cc2c(C)nn(C)c2Cl)CC1CCO (stereo not given),inconclusive: 15.1% [at 46 µM],
COc1cccc(/C=N/NC(=O)c2[nH]c(C)c(C(=O)N/N=C/c3cccc(OC)c3O)c2C)c1O,inconclusive: -38.9%,
CN(CC(=O)Nc1ccccc1Cl)S(=O)(=O)c1ccc(C(=O)N2CCOCC2)s1,inactive,
Cc1ccc(S(=O)(=O)N(C(=O)c2ccncc2)c2ccc(OC(=O)c3ccncc3)cc2)c(C)c1,inactive,
COc1ccccc1C(=O)N1CCN(c2nc3cc(C)c(C)cc3cc2C#N)CC1,,"inconclusive: 20 µM [fluorescent, single point]"
COC(=O)C1=C(N)Oc2cc(C)n(Cc3cccnc3)c(=O)c2C1c1ccccc1OC (stereo not given),inactive,
Cc1ccc(C)c(NS(=O)(=O)c2ccc(NC(=O)c3ccco3)cc2)c1,inconclusive: -37%,
COc1ccccc1N1CCN(/N=C/c2cccc(OC)c2OC)CC1,inconclusive: -6.7% [at 46 µM],
Cc1cccc(Nc2nc(N)c([N+](=O)[O-])c(N3CC(C)CC(C)C3)n2)c1 (stereo not given),inconclusive: 99.4%,
Cc1ccc(-n2c(C)cc(/C=N/Nc3ccc([N+](=O)[O-])cn3)c2C)cc1,inactive,
C=CCn1c(-c2cccc(OC)c2OC)n[nH]c1=S,inconclusive: -39.7% [at 46 µM],
CN(C)c1nc(N(C)C)nc(N2CC(CCl)OC2=N)n1 (stereo not given),inconclusive: -37.8% [at 46 µM],
CC(C)(C)c1ccc(S(=O)(=O)NCc2nc3cccnc3n2Cc2ccccc2Cl)cc1,inconclusive: -12.7% [at 46 µM],
O=C(CC1NCCc2ccccc21)Nc1ccccc1Cl (stereo not given),inconclusive: -17.7% [at 46 µM],
Cc1ccc(/C=N/n2c(=O)c(C(C)(C)C)nn3cnnc23)cc1,inactive,

Compound,"ratio change, negative = inhibition",Potency
CC(=O)OCC(=O)[C@@]12OC(C)(C)O[C@@H]1C[C@H]1[C@@H]3C[C@H](F)C4=CC(=O)C=C[C@]4(C)[C@@]3(F)[C@@H](O)C[C@@]12C,inconclusive: -2.21%,
C[C@@H](NCCc1ccc(O)cc1)[C@@H](O)c1ccc(O)cc1,,"inconclusive: 1.58 µM [activator, partial curve]"
CC1CCN(c2nnc(-n3cccc3CNc3cccc(F)c3)s2)CC1,inactive,
O=C(NC1CCCCC1)N(Cc1nc2ccccc2c(=O)[nH]1)C1CCCC1,inactive,
Cn1c(N)c(C(=O)COC(=O)c2cccnc2Cl)c(=O)n(C)c1=O,inconclusive: 7.04% [at 46 µM],
CC(=O)C(=Nc1ccc(Cl)cc1Cl)NNc1cccc(Cl)c1,inconclusive: -3.21%,
O=C(/C=C/c1cccs1)c1cc(Cl)ccc1OC(=O)N1CCOCC1,inconclusive: -32.1%,
CC1=CC(C2CC(=O)N(c3ccc(C)cc3)C2=O)CC2C(=O)N(c3ccc(C)cc3)C(=O)C12 (stereo not given),inconclusive: 30.6% [at 46 µM],
COCC(C)n1c(SCc2nc3ccccc3c(=O)[nH]2)nc2ccccc2c1=O (stereo not given),inconclusive: -40.8% [at 46 µM],
O=C(COc1ccccc1F)Nc1ccccc1OCc1cc(=O)n2ccccc2n1,inconclusive: -8.87% [at 46 µM],
COc1nc(OC)nc(Oc2ccc(Cl)cc2[N+](=O)[O-])n1,inactive,
CS(=O)(=O)NCCSc1nnnn1-c1ccccc1,inactive,
CCc1cccc(CC)c1NC(=O)COC(=O)/C(C#N)=C/c1ccc(OC)cc1,inconclusive: 13.6%,
C=CCn1c(SCC(=O)N2CCOCC2)nc2scc(-c3ccco3)c2c1=O,inconclusive: 16.2%,
CC1CC1c1ccc(/C=C(\C#N)C(=O)Nc2cccc(Cl)c2Cl)o1 (stereo not given),,"inconclusive: 12.6 µM [falling, partial curve]"
Cc1ccc2c(C)nc(Nc3nc(CSc4nnc(C)s4)cc(=O)[nH]3)nc2c1,inconclusive: -10.7%,
CCOc1ccc(CC(=O)Nc2ccc3c(c2)N(C)C(=O)c2ccccc2S3)cc1OCC,inconclusive: -26.6% [at 46 µM],
COc1ccc(CNC(=O)COC(=O)/C=C/c2cccc(Br)c2)cc1,inactive,
CCN(CC)CCN1C(=O)C(=O)/C(=C(/O)c2c(C)[nH]c(C(=O)OC)c2C)C1c1ccccc1OC (stereo not given),inconclusive: -34.3%,
CCOC(=O)N1CCc2c(sc(NCc3sccc3C)c2C(=O)Nc2cc(OC)ccc2OC)C1,inconclusive: -2.87% [at 46 µM],
CN(Cc1ccccc1)C(=O)c1ccc2c(c1)NC(=O)C(N1CCOCC1)S2 (stereo not given),inconclusive: 12.9% [at 9.22 µM],
O=C(CN1CCN(Cc2ccccc2)C1=O)NCc1ccc(Cl)cc1,inactive,
CCCCCCCCCCOC(=O)NC1CCS(=O)(=O)C1 (stereo not given),inconclusive: 9.94% [at 46 µM],
Oc1c(C(c2ccccc2F)N2CCOCC2)sc2nc(-c3ccco3)nn12 (stereo not given),inconclusive: 24% [at 46 µM],
CCOC(=O)C1=C(C)OC(N)=C(C#N)C1c1cc2c(cc1[N+](=O)[O-])OCO2 (stereo not given),inconclusive: -2.37% [at 46 µM],
CCOC(=O)N1CCN(C(=O)CSc2nnc(-c3cccc(OC)c3)o2)CC1,inconclusive: 8.74%,

# Random excerpt: 6 records from the list.
Compound,"ratio change, negative = inhibition",Potency
COc1nc(OC)nc(Oc2ccc(Cl)cc2[N+](=O)[O-])n1,inactive,
O=C(CN1CCN(Cc2ccccc2)C1=O)NCc1ccc(Cl)cc1,inactive,
C[C@@H](NCCc1ccc(O)cc1)[C@@H](O)c1ccc(O)cc1,,"inconclusive: 1.58 µM [activator, partial curve]"
COCC(C)n1c(SCc2nc3ccccc3c(=O)[nH]2)nc2ccccc2c1=O (stereo not given),inconclusive: -40.8% [at 46 µM],
CC1CC1c1ccc(/C=C(\C#N)C(=O)Nc2cccc(Cl)c2Cl)o1 (stereo not given),,"inconclusive: 12.6 µM [falling, partial curve]"
CCN(CC)CCN1C(=O)C(=O)/C(=C(/O)c2c(C)[nH]c(C(=O)OC)c2C)C1c1ccccc1OC (stereo not given),inconclusive: -34.3%,
